Laboratory results from US20100290984A1 (DUKE UNIVERSITY, published 2010).
Results are given in words; binding and its absence hold for the method and conditions named. Some results given as binding are weak or reduced against the parent protein; the word gives no strength.

Sequences of proteins named here, by UniProt entry; tags and fusion partners are left off.
UniProt O15438: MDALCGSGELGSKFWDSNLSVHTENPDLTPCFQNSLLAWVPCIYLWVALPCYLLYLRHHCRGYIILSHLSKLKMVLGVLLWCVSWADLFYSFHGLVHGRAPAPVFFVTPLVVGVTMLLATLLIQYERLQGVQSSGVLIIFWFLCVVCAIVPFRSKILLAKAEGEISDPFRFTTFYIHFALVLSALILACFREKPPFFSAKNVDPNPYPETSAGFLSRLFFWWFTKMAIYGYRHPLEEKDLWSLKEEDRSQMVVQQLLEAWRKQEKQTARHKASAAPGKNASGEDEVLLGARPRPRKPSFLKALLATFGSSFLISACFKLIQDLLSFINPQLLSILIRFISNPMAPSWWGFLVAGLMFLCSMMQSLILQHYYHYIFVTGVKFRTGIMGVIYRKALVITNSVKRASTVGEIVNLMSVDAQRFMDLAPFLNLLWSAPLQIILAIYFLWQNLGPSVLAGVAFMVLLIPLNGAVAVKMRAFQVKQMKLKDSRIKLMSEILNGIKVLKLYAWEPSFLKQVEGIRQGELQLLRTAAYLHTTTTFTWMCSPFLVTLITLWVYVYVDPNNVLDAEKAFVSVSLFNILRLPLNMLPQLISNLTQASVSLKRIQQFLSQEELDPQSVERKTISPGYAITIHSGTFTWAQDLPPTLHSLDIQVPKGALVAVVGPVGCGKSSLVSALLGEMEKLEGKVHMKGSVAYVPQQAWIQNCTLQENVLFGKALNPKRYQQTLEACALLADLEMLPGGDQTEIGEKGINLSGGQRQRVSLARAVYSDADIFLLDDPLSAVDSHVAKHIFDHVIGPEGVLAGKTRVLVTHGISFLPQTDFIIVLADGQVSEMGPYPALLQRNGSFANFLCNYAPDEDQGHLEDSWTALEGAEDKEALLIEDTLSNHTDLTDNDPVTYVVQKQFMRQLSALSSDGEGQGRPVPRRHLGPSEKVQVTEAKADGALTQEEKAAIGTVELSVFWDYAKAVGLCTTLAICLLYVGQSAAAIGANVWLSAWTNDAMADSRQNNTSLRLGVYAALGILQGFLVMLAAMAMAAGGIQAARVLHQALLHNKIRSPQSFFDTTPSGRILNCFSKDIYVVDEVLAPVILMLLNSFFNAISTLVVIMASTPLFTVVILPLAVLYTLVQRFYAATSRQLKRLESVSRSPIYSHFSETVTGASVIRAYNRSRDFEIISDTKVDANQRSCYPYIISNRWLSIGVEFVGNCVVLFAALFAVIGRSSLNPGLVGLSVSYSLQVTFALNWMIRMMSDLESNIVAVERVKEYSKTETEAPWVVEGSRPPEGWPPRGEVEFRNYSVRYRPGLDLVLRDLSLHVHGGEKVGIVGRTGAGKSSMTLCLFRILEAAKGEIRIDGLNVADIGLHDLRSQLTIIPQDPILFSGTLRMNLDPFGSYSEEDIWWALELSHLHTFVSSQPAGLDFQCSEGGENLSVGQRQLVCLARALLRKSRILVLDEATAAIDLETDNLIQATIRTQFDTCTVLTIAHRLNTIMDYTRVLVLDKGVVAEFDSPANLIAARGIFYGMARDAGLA

How the values were obtained:
[1] = biological target: human multidrug resistance protein 3 (MRP3) (human) (UniProt O15438); assay: indirect flow cytometry on MRP3-expressing glioma cells
[2] = biological target: human multidrug resistance protein 3 (MRP3) (human) (UniProt O15438); assay: indirect flow cytometric analysis (FACS)
[3] = biological target: human multidrug resistance protein 3 (MRP3) (human) (UniProt O15438); assay: indirect flow cytometry on D247MG and D54MG cells, anti-His-FITC

binding [1]: binds
binding [2]: binds
binding [3]: binds
B1: PepII-89 scFv (scFv)
scFv: QVQLVQSGGGVVQPGRSLRLSCAASGFTFSSYGMHWVRQDPGKGLMWVSSISTDGSATKYADSVKGRFTISRDNAKNTVSLQMNSLRAEDTAVYYCVGGFLGWWGQGTLVTVSSGGGGSGGGGSGGGGSEIVLTQSPATLSLSPGERATLSCRASQSVGGSYLAWYQQKPGQAPRLLIYGASRRATGIPARFSGSGSGTDFTLTISSLQPEDFASYFCQQTNTFPLTFGGGTKVEIKRTVAAPTAAA
notes: also called anti-MRP3 PepII-89scFv; not shown: Myc and hexahistidine tags from the pET 22(+) vector, at the C terminus
